Data as given in patent publication US20120283182A1 (GEORGIA REGENTS RESEARCH INSTITUTE, published 2012).

Experiments:
Assay in all cases: co-IP with anti-dF1Fo antisera from NCM mitochondria after 100 nM 4-β PMA; Western blot
ξPKC = target: T1, ξPKC (rat, UniProt P09217 1-592)
T1 construct: The Greek letter is printed as ξ, z or dropped altogether in places; also called zPKC; ξ PKC isozyme
T1 sequence (looked up): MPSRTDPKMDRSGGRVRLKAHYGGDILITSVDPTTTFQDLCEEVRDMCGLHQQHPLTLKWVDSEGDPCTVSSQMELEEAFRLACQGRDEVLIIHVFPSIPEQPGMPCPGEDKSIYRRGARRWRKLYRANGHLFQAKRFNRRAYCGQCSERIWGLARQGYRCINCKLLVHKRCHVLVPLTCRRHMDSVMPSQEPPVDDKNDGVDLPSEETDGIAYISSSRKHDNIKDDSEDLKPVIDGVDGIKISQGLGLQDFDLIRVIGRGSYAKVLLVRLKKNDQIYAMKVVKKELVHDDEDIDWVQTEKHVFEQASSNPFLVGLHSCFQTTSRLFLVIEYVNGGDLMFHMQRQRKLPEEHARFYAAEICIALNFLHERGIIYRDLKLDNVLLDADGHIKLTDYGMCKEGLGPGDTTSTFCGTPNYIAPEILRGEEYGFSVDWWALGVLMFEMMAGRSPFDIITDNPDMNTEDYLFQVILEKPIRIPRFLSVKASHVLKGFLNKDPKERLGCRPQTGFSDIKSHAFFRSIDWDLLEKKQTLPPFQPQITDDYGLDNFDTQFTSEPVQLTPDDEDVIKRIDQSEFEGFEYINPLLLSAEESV

εPKC = target: T2, εPKC (rat, UniProt P09216 1-737)
T2 construct: also called ePKC; ε PKC isozyme
T2 sequence (looked up): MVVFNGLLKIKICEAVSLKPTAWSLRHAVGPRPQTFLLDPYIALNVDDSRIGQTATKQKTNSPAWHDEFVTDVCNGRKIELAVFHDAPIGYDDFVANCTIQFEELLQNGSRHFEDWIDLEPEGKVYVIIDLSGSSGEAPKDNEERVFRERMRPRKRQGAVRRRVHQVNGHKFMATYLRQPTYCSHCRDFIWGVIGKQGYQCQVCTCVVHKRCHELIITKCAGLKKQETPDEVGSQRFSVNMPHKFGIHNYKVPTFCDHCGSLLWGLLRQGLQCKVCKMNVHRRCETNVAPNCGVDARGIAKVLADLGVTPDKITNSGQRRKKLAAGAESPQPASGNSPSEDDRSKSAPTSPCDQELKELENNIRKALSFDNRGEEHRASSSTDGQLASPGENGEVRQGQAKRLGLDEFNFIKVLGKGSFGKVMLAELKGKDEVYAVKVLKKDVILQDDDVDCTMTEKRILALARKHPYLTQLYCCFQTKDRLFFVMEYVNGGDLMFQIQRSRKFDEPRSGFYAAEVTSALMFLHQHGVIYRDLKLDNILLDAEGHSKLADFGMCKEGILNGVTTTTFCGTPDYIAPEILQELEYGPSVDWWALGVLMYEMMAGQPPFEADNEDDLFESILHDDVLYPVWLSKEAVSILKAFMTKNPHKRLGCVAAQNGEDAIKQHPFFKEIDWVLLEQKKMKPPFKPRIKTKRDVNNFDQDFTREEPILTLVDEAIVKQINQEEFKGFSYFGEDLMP

αPKC = target: T3, αPKC (rat, UniProt P05696 2-672)
T3 construct: also called aPKC; α PKC isozyme

Measured: binding result

B1: 'd' subunit of F1Fo ATP synthase (dF1Fo) (other)
chain: AGRKLALKTIDWVSFVEIMPQNQKAIGNALKSWNETFHTRLASLSEKPPAIDWAYYRANVDKPGLVDDFKNKYNALKIPVPEDKYTALVDAEEKEDVKNCAQFVTGSQARVREYEKQLEKIKNMIPFDQMTIDDLNEVFPETKLDKRKYPYWPHQPIENL
notes: In overlay assays it stood as an SDS-PAGE-resolved subunit of purified rat heart F1Fo ATPase on nitrocellulose; in co-IP it was pulled down from solubilised mitochondria with anti-dF1Fo antisera; also called δF1Fo; d subunit of F1Fo ATPase
no binding: all assays above
